# Laboratory results reported in PubChem BioAssay AID504594 (Broad Institute, 2011).
# Hit rate of the full screen: of about 2,000 compounds, fewer than 10 were called active.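 How the source made its calls: active means growth inhibition of at least 75% in every replicate, which also brings the mean inhibition to 75% or more; inconclusive means mean inhibition 75% or more but some replicate under 75%; inactive means the rest.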 This is one part of the list.
# Test: growth inhibition of PfHsp90-dependent yeast, primary screen, antimalarial PfHsp90 inhibitor project, S. cerevisiae, BacTiter-Glo luminescence (AID 504594);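 further: 0% = DMSO neutral control wells and 100% = 20 µM radicicol control wells; higher value means stronger growth inhibition because the sign is flipped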
# Conditions: S. cerevisiae expressing PfHsp90, BacTiter-Glo growth, 48 h; at 9.4 µM; hits give high values
row,SMILES,growth inhibition
1,c1ccc(Cn2ncc3c(Nc4ccccc4)ncnc32)cc1,inactive: -4.47%
2,CSc1ccc2c(c1)N(CCC1CCCCN1C)c1ccccc1S2 (stereo not drawn),inactive: -4.04%
3,Cc1cc(-c2nn(-c3ccccc3F)cc2CN2CCCC(O)C2)c(C)s1 (stereo not drawn),inactive: 5.63%
4,Cc1cc(-c2ccccc2)nnc1NCCN1CCOCC1,inactive: -0.565%
5,OCCN(Cc1nc(-c2ccc3c(c2)OCO3)no1)Cc1cccs1,inactive: -10%
6,COc1cc2c(cc1OC)CN(C(=O)c1ccc(S(=O)(=O)N(C)c3ccccc3)cc1)CC2,inactive: -4.77%
7,CCOc1ccccc1C(=O)NCCC(=O)O,inactive: -5.17%
8,OC[C@H]1O[C@@H](n2cnc3c(Nc4ccccc4)ncnc32)[C@H](O)[C@@H]1O,inactive: -0.239%
9,C=CCNC(=S)N1CCc2c([nH]c3ccccc23)C1C (stereo not drawn),inactive: -5.39%
10,COc1ccc(C=O)c(OC)c1,inactive: 9.26%
11,Cc1ccsc1/C=C/C1=NCCCN1C,inactive: 1.84%
12,Fc1cc(F)cc(NC(=S)NCCCN2CCOCC2)c1,inactive: 10.9%
13,CCCCC[C@H](O)/C=C/[C@@H]1[C@@H](C/C=C\CCCC(=O)OC)[C@@H](O)C[C@H]1O,inactive: -5.41%
14,Cn1nc(-c2ccccn2)nc2c(=O)n(C)c(=O)nc1-2,inactive: -12.4%
15,CCN(CC)CCNc1ccc(CO)c2sc3ccccc3c(=O)c12,inactive: -10.1%
16,Cc1ccc(O)c(CCc2ccccc2)n1,inactive: -2.21%
17,CCN(CC)CCOC(=O)C(c1ccccc1)c1ccccc1,inactive: -4.02%
18,OC(CCCN1CCCCC1)(c1ccccc1)c1ccccc1,inactive: -11.8%
19,COc1ccccc1NC(=O)C12CCC(C)(C(=O)C1)C2(C)C (stereo not drawn),inactive: 5.66%
20,C[C@]12CC[C@@H]3c4ccc(OS(=O)(=O)O)cc4CC[C@H]3[C@@H]1CCC2=O,inactive: -9.49%
21,COC1(C)CC2C(CC1OC(=O)c1cc([N+](=O)[O-])cc([N+](=O)[O-])c1)C2(C)C (stereo not drawn),inactive: 63.1%
22,COc1ccc(CCn2c(C)nc3c(c(=O)c4ccccc4n3C)c2=O)cc1,inactive: -0.711%
23,Cc1ccc(S(=O)(=O)NC(=O)NN2CCCCCC2)cc1,inactive: -10.7%
24,COc1ccc(O)c(N)c1,inactive: 12.8%
25,S=C(c1ccc2c(c1)OCO2)N1CCCCC1,inactive: -3.12%
26,COc1cc2c3c(c1)C(C)CC(C)(C)N3C(=O)C2=O (stereo not drawn),inactive: 11.5%
27,COc1ccc(C(=O)NCc2cccnc2)cc1,inactive: 6.25%
28,CC(=O)Nc1ccccc1O,inactive: 4.24%

# In the list so far, 5 contain a carbonyl joined to an NH by a bond outside any ring:
row,SMILES,growth inhibition
7,CCOc1ccccc1C(=O)NCCC(=O)O,inactive: -5.17%
19,COc1ccccc1NC(=O)C12CCC(C)(C(=O)C1)C2(C)C (stereo not drawn),inactive: 5.66%
23,Cc1ccc(S(=O)(=O)NC(=O)NN2CCCCCC2)cc1,inactive: -10.7%
27,COc1ccc(C(=O)NCc2cccnc2)cc1,inactive: 6.25%
28,CC(=O)Nc1ccccc1O,inactive: 4.24%
